Laboratory results taken from PubChem BioAssay AID2685 (National Center for Advancing Translational Sciences (NCATS), 2010).
Out of some 320,000 compounds screened, about 2,100 (0.66%) were called active. The inconclusive results got no clear call from the source; some entries with a clear call stand among them for comparison. Calls come from the whole dose curve; as a rule, active = well fitted inhibition curve with a large enough effect in the signal ratio, with a control signal flat (not every such curve was filed as active); inconclusive = small, poorly fitted or top-dose-only effect, or effect the other way, or a change in a side signal; inactive = flat fitted curve, though single readings scatter; the % refers to the signal ratio. Potencies beside an inconclusive call are fits to weak or partial responses and may not hold up.

assay: qHTS Assay for Lipid Storage Modulators in Drosophila S3 Cells; conditions: BODIPY lipid droplet fluorescence, 18-24 h, cells fed with added oleic acid; lipid storage change, negative = inhibition: at 46.1 µM (top of the series) unless noted
In short: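 Laser-scanning cytometry quantifies lipid droplet accumulation (500–530 nm total intensity; droplet/cell object ratio) in oleic acid-fed (400 uM added) Drosophila S3 cells treated with a concentration series. 20 uM Triacsin C defined 100% inhibition.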
% is set by controls: 0 for no effect and ±100 for the full control effect; potency is the fitted concentration of half-maximal effect.

Lipid storage change, negative = inhibition, inconclusive:
Cc1c(C(=O)Nc2ccc(-c3nnc4n3CCCCC4)cc2)oc2ccc(Br)cc12 16.1%
CCCCNc1nc2c(c(=O)n(Cc3ccccc3)c(=O)n2C)n1C -22.6%
CC(C)NCc1cccc([N+](=O)[O-])c1 -30%
Cc1ccc(N2CC(C(=O)Nc3cc(C(F)(F)F)ccc3N3CCCC3)CC2=O)cc1 (configuration not stated) 23%
Cc1ccccc1CN1CCN(CC(=O)NCc2ccc3c(c2)OCO3)C1=O 14.1%
CN(NC(=O)c1ccccc1)C1=NS(=O)(=O)c2ccccc21 26.8%
O=C(Nc1ccc(N2CCOCC2)cc1)C1CCN(S(=O)(=O)Cc2ccccc2)CC1 42.8%
CS(=O)(=O)N(Cc1ccc(Cl)cc1)c1ccc(C(=O)NCCSc2ccccn2)cc1 26%
C=CCOc1ccc(/C(O)=C2/C(=O)C(=O)N(CCCn3ccnc3)C2c2ccco2)cc1 (configuration not stated) -17.5%
C=CCOc1c(CCC)cc(CCC)cc1C(N)=O -15.7%
O=C(CCCCO)CCCCCCCC[C@H]1N[C@H](CO)[C@H](O)[C@@H]1O[C@@H]1O[C@H](CO)[C@@H](O)[C@H](O)[C@H]1O -6.7%
Cc1ccccc1Nc1scc(-c2ccc(Br)cc2)[n+]1-c1ccccc1C 30.9%
Cc1[nH]c2ccccc2c1C(=O)COC(=O)Cn1c(C)nc2ccccc21 34.4%
Cn1c(O)c(/C=N/Nc2ccccc2)c(=O)n(C)c1=O -17.1%
O=C(NC1CCCCC1)c1ccc(N2CCCC2=O)cc1 35%
CCC(=O)NNc1cccc(Cl)n1 224%
COc1ccc(CNC(=O)c2cc(-c3ccncc3)nc3c(C)cc(C)cc23)cc1OC -18.6%
Cc1cc2c(Nc3ccccc3)ncnc2s1 9.57%
Clc1ncnc2scc(-c3ccc(Br)cc3)c12 -37.2%
Fc1ccc(C2=CC(c3ccc(Br)o3)n3ncnc3N2)cc1 (configuration not stated) 14.2%
O=C(c1sc2ccccc2c1Cl)N(Cc1ccccc1)C1CCS(=O)(=O)C1 (configuration not stated) 11.9%
S=C(NCCc1ccccc1)Nc1nccs1 1.56%
CC(=O)N1CCN(c2ccc(OC[C@H]3CO[C@](Cn4ccnc4)(c4ccc(Cl)cc4Cl)O3)cc2)CC1 -4.15%
Cc1cccc(NC(=O)CSCC(=O)N2CCN(C(=O)c3ccco3)CC2)c1 0.557%
CCn1c(=O)cc(N2CCN(Cc3ccccc3)CC2)[nH]c1=O 41.7%
c1ccc(CSc2ccc3nnc(-c4cccnc4)n3n2)cc1 19.3%
N#Cc1c(-c2ccco2)cc(C2CC2)nc1SCC(=O)c1ccccc1 -9.33%
O=C(Cn1c(=O)oc2ccccc21)Nc1ccc(S(=O)(=O)N2CCCCC2)cc1 -36.8%
O=C(O)CSCC(=O)NC1CCCc2ccccc21 (configuration not stated) 12.2%
COc1cc(C(=O)NNC(=O)c2ccc3ccccc3n2)cc(OC)c1OC -2.26%
CCCCOC(=O)c1cc(Cl)c(O)c(OC)c1 -3.55%
Oc1ccc(C(=S)N2CCCCC2)cc1Cl -0.023%
CC(=O)O/N=C1\C(=O)N(Cc2ccc(C)cc2)c2ccccc21 7.42%
O=C(COC(=O)Cc1ccsc1)NCc1ccccc1 11.7%
COc1ccc(CC(=O)NC(C)c2nnc(SCC(=O)Nc3cc(C)ccc3OC)n2C)cc1 (configuration not stated) 19.8%

Lipid storage change, negative = inhibition, inactive:
COc1cccc(C(=O)Nc2nnc(-c3ccccc3)s2)c1 -1.19%
O=C(Cn1cc([N+](=O)[O-])cn1)Nc1nccs1 3.37%

Potency, inconclusive:
CNC(=S)N(CCc1c(C)[nH]c2ccc(C)cc12)Cc1cccnc1 1.64 µM [falling, partial curve]
COC(=O)Cn1nc(-c2ccccc2)c2cc(Cl)ccc21 20.6 µM [activator, partial curve]
Cc1ccc(Cl)cc1NC(=O)C(=O)N/N=C/c1ccc2c(c1)OCO2 0.184 µM [activator, full curve]
CCOc1c(Cl)cc(CNCC(O)c2ccccc2)cc1OC (configuration not stated) 23.1 µM [activator, single point]
Cc1ccc(C)c(SCC(=O)NNC(=O)c2ccccc2)c1 0.731 µM [activator, single point]
COCCCNC(=O)CSc1nc2ccccc2c(=O)n1CCc1ccc(S(N)(=O)=O)cc1 9.2 µM [falling, partial curve]
O=C(NC(=S)Nc1ccc(S(=O)(=O)N2CCCCCC2)cc1)c1cccs1 10.3 µM [activator, partial curve]
COc1ccc(N2CCN(Cc3cc4c(cc3O)CCC4)CC2)cc1 13 µM [activator, partial curve]
Nc1nc(SCC(=O)N2CCCC2)[nH]c(=O)c1NC(=O)c1cccs1 29.1 µM [activator, single point]
CC1CCCN(S(=O)(=O)c2ccc(C(=O)NC(C)c3ccccc3)cc2)C1 (configuration not stated) 0.92 µM [falling, full curve, poor fit]
NS(=O)(=O)c1ccc(NCCCn2ccnc2)c([N+](=O)[O-])c1 2.06 µM [activator, partial curve]
NC(=O)CSc1nnc(-c2ccc3c(c2)OCO3)o1 0.103 µM [activator, full curve, poor fit]
O=C(CCSCCC(=O)NCc1ccc(F)cc1)NCc1ccc(F)cc1 0.0052 µM [activator, full curve, poor fit]

Potency, active:
O=C(Nc1ccc(CN2CCOCC2)cc1)c1ccc(-c2cccc([N+](=O)[O-])c2)o1 8.2 µM
Cc1ccc(/C=N/NC(=O)c2ccc(Br)o2)s1 3.66 µM
